Experimental data reported in the supplement of paper PMC11348887.
Structures can show the parent of a compound that is named as a salt. This is one part of the list. Small differences around the control level are noise.

Key:
Settings in all cases: 5 µM; treatment: days 7-14 after plating, readout day 21
[1] = tested on: hPSC-derived cortical neurons (WA09); assay: nucleus area z-score vs screen plate; higher = larger nuclei (more mature)
[2] = tested on: hPSC-derived cortical neurons (WA09); assay: total neurite length per nucleus (MAP2) z-score; higher = more neurite growth
[3] = tested on: hPSC-derived cortical neurons (WA09); assay: nucleus roundness z-score vs screen plate; higher = rounder nuclei (more mature)
[4] = tested on: hPSC-derived cortical neurons (WA09); assay: KCl-induced FOS+/EGR-1+ double-positive nuclei fraction z-score (KCl minus unstimulated); higher = stronger activity-induced IEG response

| Compound | nucleus area z-score [1] | total neurite length per nucleus (z-score) [2] | nucleus roundness z-score [3] | KCl-induced FOS+/EGR-1+ double-positive nuclei fraction z-score [4] |
| --- | --- | --- | --- | --- |
| O=C(NCCN1CCOCC1)c1ccc(Cl)cc1 | -0.0644 | 1.38 | -0.162 | -0.207 |
| Cc1cccc(-c2[nH]c(C(C)(C)C)nc2-c2ccc3c(c2)OCO3)n1 | 2.05 | -4.1 | -7.95 | -1.6 |
| CCN(CC)CCOC(=O)C(c1ccccc1)c1ccccc1 [Adiphenine HCl] | -1.5 | 1.29 | 0.584 | 1.48 |
| Oc1ccc(-c2nc(-c3ccc(F)cc3)c(-c3ccncc3)[nH]2)cc1 | 0.0285 | 0.376 | 0.174 | 1.08 |
| CC(C)c1ccc2c(c1)c(SC(C)(C)C)c(CC(C)(C)C(=O)O)n2Cc1ccc(Cl)cc1 | -0.326 | 0.32 | 0.893 | -0.161 |
| CC1COc2c(N3CCN(C)CC3)c(F)cc3c(=O)c(C(=O)O)cn1c23 (stereo not drawn) [Ofloxacin] | 0.407 | 1.56 | 1.14 | -0.709 |
| Cc1ccc(C(=O)N(CCCN)[C@@H](c2nc3cc(Cl)ccc3c(=O)n2Cc2ccccc2)C(C)C)cc1 | -9.92 | -3.71 | -7.45 | -3.45 |
| CCCCOc1ccc(C(=O)CCN2CCCCC2)cc1 [Dyclonine HCl] | -0.747 | -0.577 | 1.19 | 1.35 |
| O=C(CCc1ccc(O)cc1)c1c(O)cc(O)cc1O[C@@H]1O[C@H](CO)[C@@H](O)[C@H](O)[C@H]1O [Phlorizin] | -0.66 | 1.09 | 0.572 | 0.208 |
| C[C@H](Oc1cc(-c2cnn(C3CCNCC3)c2)cnc1N)c1c(Cl)ccc(F)c1Cl [(S)-crizotinib] | -0.884 | -0.947 | -1.15 | 0.578 |
| CCCCc1nc2cc(/C=C/C(=O)NO)ccc2n1CCN(CC)CC [Pracinostat (SB939)] | -8.12 | -3 | -4.24 | -1.22 |
| CN(C)CCCN1c2ccccc2CCc2ccccc21 [Imipramine HCl] | 0.209 | 0.25 | 1.11 | -0.0111 |
| CC(C)(OCc1nn(Cc2ccccc2)c2ccccc12)C(=O)O [Bindarit] | 0.133 | -0.666 | -0.537 | 0.47 |
| CCOC(=O)C1=C(COCCN)NC(C)=C(C(=O)OC)C1c1ccccc1Cl (stereo not drawn) [Amlodipine] | -2.83 | -0.987 | -0.97 | -0.831 |
| CC/C(=C(\c1ccccc1)c1ccc(OCCN(C)C)cc1)c1ccccc1 [Tamoxifen] | -5.78 | -2.87 | -3.47 | -1.44 |
| Brc1ccc([C@H]2CN3CCSC3=N2)cc1 [(-)-p-Bromotetramisole Oxalate] | -0.02 | 0.446 | 0.0172 | 0.472 |
| C[C@@H]1CCO[C@H]2Cn3cc(C(=O)NCc4ccc(F)cc4F)c(=O)c(O)c3C(=O)N12 | 0.291 | 0.455 | 0.309 | 0.547 |
| CCn1c2ccccc2c2cc(CNCc3ccccc3OC)ccc21 | -1.23 | -0.494 | -0.701 | 1.36 |
| CNC(=O)c1cc(Oc2ccc(NC(=O)Nc3ccc(Cl)c(C(F)(F)F)c3)cc2)ccn1 [Sorafenib] | 2.68 | -1.04 | -2.02 | -0.0926 |

Another view of part of the listing above.
Compound	nucleus area z-score [1]	total neurite length per nucleus (z-score) [2]	nucleus roundness z-score [3]	KCl-induced FOS+/EGR-1+ double-positive nuclei fraction z-score [4]
CCN(CC)CCOC(=O)C(c1ccccc1)c1ccccc1 [Adiphenine HCl]	-1.5	1.29	0.584	1.48
Oc1ccc(-c2nc(-c3ccc(F)cc3)c(-c3ccncc3)[nH]2)cc1	0.0285	0.376	0.174	1.08
CC(C)c1ccc2c(c1)c(SC(C)(C)C)c(CC(C)(C)C(=O)O)n2Cc1ccc(Cl)cc1	-0.326	0.32	0.893	-0.161
CC1COc2c(N3CCN(C)CC3)c(F)cc3c(=O)c(C(=O)O)cn1c23 (stereo not drawn) [Ofloxacin]	0.407	1.56	1.14	-0.709
Cc1ccc(C(=O)N(CCCN)[C@@H](c2nc3cc(Cl)ccc3c(=O)n2Cc2ccccc2)C(C)C)cc1	-9.92	-3.71	-7.45	-3.45
CCCCOc1ccc(C(=O)CCN2CCCCC2)cc1 [Dyclonine HCl]	-0.747	-0.577	1.19	1.35
O=C(CCc1ccc(O)cc1)c1c(O)cc(O)cc1O[C@@H]1O[C@H](CO)[C@@H](O)[C@H](O)[C@H]1O [Phlorizin]	-0.66	1.09	0.572	0.208
C[C@H](Oc1cc(-c2cnn(C3CCNCC3)c2)cnc1N)c1c(Cl)ccc(F)c1Cl [(S)-crizotinib]	-0.884	-0.947	-1.15	0.578
CCCCc1nc2cc(/C=C/C(=O)NO)ccc2n1CCN(CC)CC [Pracinostat (SB939)]	-8.12	-3	-4.24	-1.22
CN(C)CCCN1c2ccccc2CCc2ccccc21 [Imipramine HCl]	0.209	0.25	1.11	-0.0111
CC(C)(OCc1nn(Cc2ccccc2)c2ccccc12)C(=O)O [Bindarit]	0.133	-0.666	-0.537	0.47
CCOC(=O)C1=C(COCCN)NC(C)=C(C(=O)OC)C1c1ccccc1Cl (stereo not drawn) [Amlodipine]	-2.83	-0.987	-0.97	-0.831
CC/C(=C(\c1ccccc1)c1ccc(OCCN(C)C)cc1)c1ccccc1 [Tamoxifen]	-5.78	-2.87	-3.47	-1.44
Brc1ccc([C@H]2CN3CCSC3=N2)cc1 [(-)-p-Bromotetramisole Oxalate]	-0.02	0.446	0.0172	0.472
C[C@@H]1CCO[C@H]2Cn3cc(C(=O)NCc4ccc(F)cc4F)c(=O)c(O)c3C(=O)N12	0.291	0.455	0.309	0.547
CCn1c2ccccc2c2cc(CNCc3ccccc3OC)ccc21	-1.23	-0.494	-0.701	1.36

2 compounds from above, reduced to nucleus area z-score [1]:
Compound | nucleus area z-score [1]
CC(C)(OCc1nn(Cc2ccccc2)c2ccccc12)C(=O)O [Bindarit] | 0.133
CCOC(=O)C1=C(COCCN)NC(C)=C(C(=O)OC)C1c1ccccc1Cl (stereo not drawn) [Amlodipine] | -2.83

Later entries

| Compound | nucleus area z-score [1] | total neurite length per nucleus (z-score) [2] | nucleus roundness z-score [3] | KCl-induced FOS+/EGR-1+ double-positive nuclei fraction z-score [4] |
| --- | --- | --- | --- | --- |
| C[C@@]12C[C@@]3(O)O[C@@H](O1)[C@]1(COC(=O)c4ccccc4)[C@H]3C[C@@]12O[C@@H]1O[C@H](CO)[C@@H](O)[C@H](O)[C@H]1O [Paeoniflorin] | 0.0147 | -0.977 | -1.27 | 0.197 |
| CCCCCC(=O)O[C@]1(C(C)=O)CC[C@H]2[C@@H]3CCC4=CC(=O)CC[C@]4(C)[C@H]3CC[C@@]21C [Hydroxyprogesterone caproate] | -0.57 | -0.227 | -0.332 | -0.11 |
| O=C(NOC[C@H](O)CO)c1ccc(F)c(F)c1Nc1ccc(I)cc1F | -0.359 | -0.201 | 0.543 | -0.747 |
| CC(C)C[C@H](NP(=O)(O)O[C@@H]1O[C@@H](C)[C@H](O)[C@@H](O)[C@H]1O)C(=O)N[C@@H](Cc1c[nH]c2ccccc12)C(=O)O [Phosphoramidon Disodium Salt] | 0.0607 | 0.097 | 0.385 | 0.518 |
| CCCC(CCC)C(=O)O [Divalproex Sodium] | -0.661 | 1.17 | 0.256 | 0.922 |
| C[C@]12CC[C@@H]3c4ccc(OC(=O)c5ccccc5)cc4CC[C@H]3[C@@H]1CC[C@@H]2O [Estradiol Benzoate] | 1.55 | -0.336 | 0.144 | 0.0887 |
| COC(=O)[C@@H]1CC2=CC(=O)CC[C@]2(C)[C@@]23O[C@@H]2C[C@@]2(C)[C@@H](CC[C@@]24CCC(=O)O4)[C@H]13 [Eplerenone] | -0.213 | 0.407 | -0.0966 | -0.475 |
| Oc1ccc(OC2CCCCO2)cc1 (stereo not drawn) [Deoxyarbutin] | -0.0951 | 0.333 | 0.458 | 0.145 |
| O=C(Nc1c[nH]nc1-c1nc2ccc(CN3CCOCC3)cc2[nH]1)NC1CC1 | 4.44 | -0.455 | -0.206 | -1.81 |
| COc1ccc(-c2ccc3cc(C(=O)O)ccc3c2)cc1C12CC3CC(CC(C3)C1)C2 [Adapalene] | 0.245 | 0.0417 | 0.546 | 1.21 |
| CCCCCCCCCCCCCCCC[N+](C)(C)C [Cetrimonium Bromide (CTAB)] | -18 | -6.19 | -5.6 | -2.04 |
| Nc1ccc(S(=O)(=O)Nc2nccs2)cc1 [Sulfathiazole] | 0.6 | 0.596 | 0.497 | 0.512 |
| C[C@@H]1O[C@@H]1P(=O)(O)O [Fosfomycin Tromethamine] | 0.7 | 0.337 | 0.956 | 0.942 |
| CCOC(N)=O [Urethane] | 3.28 | -2.89 | -5.14 | 0.492 |
| C#CC[C@H](c1nc2cc(Cl)ccc2c(=O)n1Nc1ccccc1)N(CCCN)C(=O)c1cccc(Cl)c1F | -11.1 | -5.2 | -6.92 | -1.06 |
| COc1cnc(NS(=O)(=O)c2ccc(N)cc2)nc1 [Sulfameter] | 0.0456 | 0.815 | 1.51 | 1.23 |
| Nc1ccc(C(=O)NCC(=O)O)cc1 [4-Aminohippuric Acid] | 0.408 | 1.07 | 0.827 | 0.69 |
| CC1(C)[C@@H](O[C@H]2O[C@H](C(=O)O)[C@@H](O)[C@H](O)[C@H]2O[C@@H]2O[C@H](C(=O)O)[C@@H](O)[C@H](O)[C@H]2O)CC[C@]2(C)[C@H]3C(=O)C=C4[C@@H]5C[C@@](C)(C(=O)O)CC[C@]5(C)CC[C@@]4(C)[C@]3(C)CC[C@@H]12 [Ammonium Glycyrrhizinate] | 0.405 | 0.312 | -0.62 | 1.15 |
| O=C1NCCCc2c1oc1ccc(O)cc21 | -0.937 | 0.592 | 0.775 | 0.0776 |

| Compound | nucleus area z-score [1] | total neurite length per nucleus (z-score) [2] | nucleus roundness z-score [3] | KCl-induced FOS+/EGR-1+ double-positive nuclei fraction z-score [4] |
| --- | --- | --- | --- | --- |
| Nc1nnc(-c2cccc(Cl)c2Cl)c(N)n1 [Lamotrigine] | 0.716 | -0.557 | 0.363 | 0.378 |
| CC1=C(/C=C/C(C)=C/C=C/C(C)=C\C(=O)O)C(C)(C)CCC1 [Isotretinoin] | 0.544 | -0.239 | 0.172 | -0.0657 |
| CC(C(=O)O)c1ccc2c(c1)CC(=O)c1ccccc1S2 (stereo not drawn) [Zaltoprofen] | -0.164 | 0.173 | 0.524 | -0.0598 |
| CCc1nc(N)nc(N)c1-c1ccc(Cl)cc1 [Pyrimethamine] | -0.943 | 0.0759 | -0.42 | -0.694 |
| O=[N+]([O-])c1ccc(Nc2nc(N3CCOCC3)nc(N3CCOCC3)n2)cc1 | 0.114 | -0.982 | -1.57 | 2.48 |
| COc1cc2nccc(Oc3ccc(NC(=O)C4(C(=O)Nc5ccc(F)cc5)CC4)cc3)c2cc1OC [Cabozantinib malate (XL184)] | 0.308 | 0.942 | -0.348 | 0.557 |
| Cc1ccccc1C(=O)Nc1ccc(C(=O)N2CCCC(O)c3cc(Cl)ccc32)c(C)c1 (stereo not drawn) [Tolvaptan] | 3.02 | -1.11 | -0.125 | -0.317 |
| CC(C)[C@H](N)C(=O)OCC(CO)OCn1cnc2c(=O)[nH]c(N)nc21 (stereo partly drawn) [Valganciclovir HCl] | -1.01 | -0.425 | -0.284 | -0.838 |
| N=c1ccn2c(n1)O[C@H]1[C@H](O)[C@@H](CO)O[C@H]12 [Cyclocytidine HCl] | -0.192 | 1.44 | -0.331 | 0.533 |
| CCn1cc(C(=O)O)c(=O)c2cc(F)c(N3CCN(C)CC3)cc21 [Pefloxacin Mesylate Dihydrate] | 1 | 0.05 | -0.66 | 0.0646 |
| CCCCC1=NC2(CCCC2)C(=O)N1Cc1ccc(-c2ccccc2-c2nnn[nH]2)cc1 [Irbesartan] | -0.3 | 0.506 | -0.34 | 0.668 |
| CN1C[C@@H]2C[C@H]1CN2c1cc2c(cc1F)c(=O)c(C(=O)O)cn2C1CC1 [Danofloxacin Mesylate] | -0.325 | 0.0211 | 1.34 | 0.191 |
| CCC[S+]([O-])c1ccc2[nH]c(NC(=O)OC)nc2c1 (stereo not drawn) [Albendazole Oxide] | 0.168 | -0.659 | -0.3 | 2.6 |
| CN(C)CCCCC(=O)Nc1ccc(NC(=S)NC(=O)c2ccc(C(C)(C)C)cc2)cc1 [Tenovin-6] | -0.744 | -0.888 | -2.37 | -1.38 |
| C=CCN1CCCC1CNC(=O)c1cc2nn[nH]c2cc1OC (stereo not drawn) [Alizapride HCl] | 0.179 | -1.55 | -0.744 | -2.62 |
| Oc1cc2c(cc1O)[C@@H]1c3ccc(O)c(O)c3OC[C@]1(O)C2 [Hematoxylin] | -0.366 | 0.488 | 0.921 | 0.267 |
| COc1cccc2c1C(=O)c1c(O)c3c(c(O)c1C2=O)C[C@@](O)(C(=O)CO)C[C@@H]3O[C@H]1C[C@H](N)[C@@H](O)[C@H](C)O1 [Epirubicin HCl] | -11.5 | -6.1 | 1.14 | -0.719 |
| Cc1c(O)cccc1C(=O)N[C@@H](CSc1ccccc1)[C@H](O)CN1C[C@H]2CCCC[C@H]2C[C@H]1C(=O)NC(C)(C)C [Nelfinavir Mesylate] | -1.6 | -1.53 | -1.32 | -0.498 |
| c1ccc(C2CN3CCSC3=N2)cc1 (stereo not drawn) [Tetramisole HCl] | 0.455 | 1.18 | 0.593 | 2.12 |
